Data published in US20210038687A1.
These are yes or no findings as the source states them, for the method shown. Some results given as binding are weak or reduced against the parent protein; the word gives no strength.

Key:
[1] = biological target: purified bovine cardiac alpha-tropomyosin (bovine) (UniProt Q5KR49); assay: competitive ELISA; tropomyosin coated, competitor intact cardiac TnI
[2] = biological target: purified bovine cardiac alpha-tropomyosin (bovine) (UniProt Q5KR49); assay: competitive ELISA; tropomyosin coated, competitor intact bovine cardiac TnI, detection by mAb 4H6

- binding [1]: binds
- binding [2]: binds
B1: HcTnI-C27 peptide (the C-terminal 27 amino acid peptide of human cardiac TnI) (peptide)
peptide: ENREVGDWRKNIDALSGMEGRKKKFES
